In publication PMC3951250 one finds binding data, which are given here for five molecules.

Protein sequences, listed by entry. Tags and fused reporters are not part of them. Residues count along the entry.
UniProt P46937: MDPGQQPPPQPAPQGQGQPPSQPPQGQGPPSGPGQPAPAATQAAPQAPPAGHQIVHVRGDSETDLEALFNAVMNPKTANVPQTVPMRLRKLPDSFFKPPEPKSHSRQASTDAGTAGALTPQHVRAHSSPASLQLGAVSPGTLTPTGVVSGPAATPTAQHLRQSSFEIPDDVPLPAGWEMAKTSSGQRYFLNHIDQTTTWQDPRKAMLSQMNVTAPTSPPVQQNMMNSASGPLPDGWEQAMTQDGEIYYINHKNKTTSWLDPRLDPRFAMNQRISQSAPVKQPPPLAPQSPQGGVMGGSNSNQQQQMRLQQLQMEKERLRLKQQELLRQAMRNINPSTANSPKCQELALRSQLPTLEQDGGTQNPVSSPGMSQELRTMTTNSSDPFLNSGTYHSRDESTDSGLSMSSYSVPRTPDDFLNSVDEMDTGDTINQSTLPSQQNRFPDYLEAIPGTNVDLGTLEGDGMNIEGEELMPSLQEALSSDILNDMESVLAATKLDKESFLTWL
UniProt P32297, residues 32-505: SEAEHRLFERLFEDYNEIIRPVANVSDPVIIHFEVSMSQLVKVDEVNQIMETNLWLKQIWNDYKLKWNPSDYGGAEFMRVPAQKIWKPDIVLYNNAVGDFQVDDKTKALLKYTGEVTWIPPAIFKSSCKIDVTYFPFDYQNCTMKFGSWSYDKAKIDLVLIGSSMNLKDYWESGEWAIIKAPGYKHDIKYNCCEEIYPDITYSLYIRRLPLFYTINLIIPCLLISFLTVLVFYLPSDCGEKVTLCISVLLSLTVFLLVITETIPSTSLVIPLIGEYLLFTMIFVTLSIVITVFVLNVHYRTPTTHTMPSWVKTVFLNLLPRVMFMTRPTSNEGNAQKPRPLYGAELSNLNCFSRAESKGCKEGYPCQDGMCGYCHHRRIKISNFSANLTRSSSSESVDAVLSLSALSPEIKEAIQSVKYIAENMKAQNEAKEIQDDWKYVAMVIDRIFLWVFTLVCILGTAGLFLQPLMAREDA
UniProt P30532, residues 23-468: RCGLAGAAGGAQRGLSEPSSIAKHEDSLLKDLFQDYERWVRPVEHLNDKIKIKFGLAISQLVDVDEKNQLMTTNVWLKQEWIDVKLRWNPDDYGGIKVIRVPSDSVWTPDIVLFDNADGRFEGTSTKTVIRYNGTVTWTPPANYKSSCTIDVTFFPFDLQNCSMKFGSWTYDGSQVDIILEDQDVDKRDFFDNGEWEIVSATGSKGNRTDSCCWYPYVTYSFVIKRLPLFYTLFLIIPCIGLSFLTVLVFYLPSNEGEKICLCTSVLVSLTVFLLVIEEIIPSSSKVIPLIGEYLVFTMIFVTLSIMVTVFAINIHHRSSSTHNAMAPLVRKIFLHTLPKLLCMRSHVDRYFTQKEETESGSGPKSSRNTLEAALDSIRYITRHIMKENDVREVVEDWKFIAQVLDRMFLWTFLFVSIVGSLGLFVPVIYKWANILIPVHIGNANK
UniProt P30926, residues 22-498: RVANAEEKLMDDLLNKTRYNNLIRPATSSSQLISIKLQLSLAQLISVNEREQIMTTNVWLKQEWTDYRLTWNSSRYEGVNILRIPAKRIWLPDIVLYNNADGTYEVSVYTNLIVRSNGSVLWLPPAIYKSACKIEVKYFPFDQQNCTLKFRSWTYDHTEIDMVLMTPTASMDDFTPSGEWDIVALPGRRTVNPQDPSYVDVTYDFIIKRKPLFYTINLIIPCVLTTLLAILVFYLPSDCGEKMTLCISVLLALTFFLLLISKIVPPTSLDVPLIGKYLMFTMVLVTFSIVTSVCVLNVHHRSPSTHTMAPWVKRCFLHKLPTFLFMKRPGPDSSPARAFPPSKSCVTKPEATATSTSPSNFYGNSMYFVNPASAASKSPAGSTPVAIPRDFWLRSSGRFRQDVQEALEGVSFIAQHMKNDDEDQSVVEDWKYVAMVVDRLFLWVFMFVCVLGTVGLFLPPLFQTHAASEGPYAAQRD

These are yes or no findings as the source states them, for the method shown. In cells and extracts the contact can be indirect. Some results given as binding are weak or reduced against the parent protein; the word gives no strength.

Experiment [1] addresses Yes-associated protein 1 (YAP1) (human (endogenous in KYSE510)) (UniProt P46937). The experiment is described as follows: co-IP; endogenous proteins of KYSE510 cells; lysis in RIPA buffer (10 mM Tris pH 7.4, 150 mM NaCl, 1% Triton X-100, 0.1% sodium deoxycholate, 0.1% SDS, 5 mM EDTA); primary antibody, protein A-agarose beads; Western blot. On the technique in general: Immunoblotting shows a protein as a band on a membrane.

In experiment [2] the target is Recombinant GST labeled YAP1 protein (UniProt P46937). The experiment is described as follows: pull-down; GST-YAP1 or GST alone on glutathione beads (4 hours), then incubated for 4 hours with lysates of KYSE510 cells; Western blot; only the target purified.
The target of experiment [3] is Yes-associated protein 1 (YAP1) (human (endogenous in KYSE510)) (UniProt P46937). The experiment in a line: co-IP; KYSE510 cells transfected with tGFP-CHRNA3; RIPA lysate, primary antibody, protein A-agarose beads; Western blot.
For experiment [4] the target is unchanged. The experiment is described as follows: co-IP; endogenous proteins of KYSE510 cells; lysis in RIPA buffer (10 mM Tris pH 7.4, 150 mM NaCl, 1% Triton X-100, 0.1% sodium deoxycholate, 0.1% SDS, 5 mM EDTA); primary antibody, protein A-agarose beads; Western blot. This is another data set of the same source.

Take “CHRNA3 (neuronal acetylcholine receptor subunit alpha-3) (from UniProt P32297 32-505)”: the binding entry in experiment [1] and in experiment [2] was “binds” throughout.

Take “CHRNA5 (neuronal acetylcholine receptor subunit alpha-5) (from UniProt P30532 23-468)”: the binding result in experiment [1] is given as “binds”.

For the molecule “CHRNB4 (from UniProt P30926 22-498) (receptor)”, the binding entry in experiment [1] is reported as “binds”.

For “tGFP-labeled CHRNA3 (from UniProt P32297 32-505) (receptor)”, the binding entry in experiment [3] was “binds”.

B1: p63 (protein, UniProt Q9H3D4 1-680)
chain: MNFETSRCATLQYCPDPYIQRFVETPAHFSWKESYYRSTMSQSTQTNEFLSPEVFQHIWDFLEQPICSVQPIDLNFVDEPSEDGATNKIEISMDCIRMQDSDLSDPMWPQYTNLGLLNSMDQQIQNGSSSTSPYNTDHAQNSVTAPSPYAQPSSTFDALSPSPAIPSNTDYPGPHSFDVSFQQSSTAKSATWTYSTELKKLYCQIAKTCPIQIKVMTPPPQGAVIRAMPVYKKAEHVTEVVKRCPNHELSREFNEGQIAPPSHLIRVEGNSHAQYVEDPITGRQSVLVPYEPPQVGTEFTTVLYNFMCNSSCVGGMNRRPILIIVTLETRDGQVLGRRCFEARICACPGRDRKADEDSIRKQQVSDSTKNGDGTKRPFRQNTHGIQMTSIKKRRSPDDELLYLPVRGRETYEMLLKIKESLELMQYLPQHTIETYRQQQQQQHQHLLQKQTSIQSPSSYGNSSPPLNKMNSMNKLPSVSQLINPQQRNALTPTTIPDGMGANIPMMGTHMPMAGDMNGLSPTQALPPPLSMPSTSHCTPPPPYPTDCSIVSFLARLGCSSCLDYFTTQGLTTIYQIEHYSMDDLASLKIPEQFRHAIWKGILDHRQLHEFSSPSHLLRTPSSASTVSVGSSETRGERVIDAVRFTLRQTISFPPRDEWNDFNFDMDARRNKQQRIKEEGE
Consider B1, for which the binding entry in experiment [4] was “binds”.
